Source: US10329626B2, “NOL3 is a predictor of patient outcome” (priority 2009, dated 2019)
Some entries share one result that the patent states for a list of compounds.

Test system: primary human glioma cells
Experiment: Primary human glioma neurosphere orthografts implanted intracranially in nude mice, survival
Details: treatment after establishing tumors for 12 days

| SMILES | time by which all animals died [days] |
| --- | --- |
| Cc1cn(-c2cc(NC(=O)c3ccc(C)c(Nc4nccc(-c5cccnc5)n4)c3)cc(C(F)(F)F)c2)cn1 [AMN107] | ≤ 60 |
| CNC(C)C(=O)NC(C(=O)N1CCC2CCN(CCc3ccccc3)CC21)C1CCCCC1 (centres unmarked) [LBW242, N-[1-cyclohexyl-2-oxo-2-(6-phenethyl-octahydro-pyrrolo[2,3-c]pyridin-1-yl)-ethyl]-2-methylamino-propionamide] | ≤ 60 |
